Measured values reported in patent publication US9249466B2, “Methods and compositions for treating cancer” (Agency for Science, Technology and Research, priority 2010, dated 2016).
These are yes or no findings as the source states them, for the method shown. Binding seen in cells or lysates may run through a third protein. Some results given as binding are weak or reduced against the parent protein; the word gives no strength. Sequences can lack the tags named with a protein.

Sequences of proteins named here, by UniProt entry; tags and fusion partners are left off. Residues count along the entry.
UniProt P67775: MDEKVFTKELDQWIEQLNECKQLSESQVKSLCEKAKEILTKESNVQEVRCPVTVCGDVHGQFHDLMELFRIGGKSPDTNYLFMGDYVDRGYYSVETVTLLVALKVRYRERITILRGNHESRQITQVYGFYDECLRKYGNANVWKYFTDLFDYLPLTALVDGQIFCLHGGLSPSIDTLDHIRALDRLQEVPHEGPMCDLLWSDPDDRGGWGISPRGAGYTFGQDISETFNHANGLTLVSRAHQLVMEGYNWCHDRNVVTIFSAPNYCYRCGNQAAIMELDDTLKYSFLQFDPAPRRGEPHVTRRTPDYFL
UniProt P30153, residues 2-589: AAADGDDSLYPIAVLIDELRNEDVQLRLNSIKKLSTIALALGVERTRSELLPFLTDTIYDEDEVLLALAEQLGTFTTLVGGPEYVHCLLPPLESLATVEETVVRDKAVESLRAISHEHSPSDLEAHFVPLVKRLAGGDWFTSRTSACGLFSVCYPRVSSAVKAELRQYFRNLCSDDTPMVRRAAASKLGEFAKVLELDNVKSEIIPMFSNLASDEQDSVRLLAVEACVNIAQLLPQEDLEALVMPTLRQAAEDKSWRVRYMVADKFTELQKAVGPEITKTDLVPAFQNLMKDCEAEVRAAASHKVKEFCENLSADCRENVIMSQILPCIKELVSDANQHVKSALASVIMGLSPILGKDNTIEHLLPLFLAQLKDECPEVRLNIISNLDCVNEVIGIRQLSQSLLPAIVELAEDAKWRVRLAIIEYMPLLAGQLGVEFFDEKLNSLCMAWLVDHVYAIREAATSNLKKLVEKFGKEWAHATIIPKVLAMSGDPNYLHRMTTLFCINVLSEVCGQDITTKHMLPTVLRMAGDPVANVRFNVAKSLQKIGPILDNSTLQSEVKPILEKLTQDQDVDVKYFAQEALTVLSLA

Assays:
[1] = biological target: T1, PDK1-HA (ectopic PDK1) (human) (UniProt O15530); assay: reciprocal co-immunoprecipitation (anti-HA, anti-Myc tag), co-transfected 293T cells
T1 sequence (looked up): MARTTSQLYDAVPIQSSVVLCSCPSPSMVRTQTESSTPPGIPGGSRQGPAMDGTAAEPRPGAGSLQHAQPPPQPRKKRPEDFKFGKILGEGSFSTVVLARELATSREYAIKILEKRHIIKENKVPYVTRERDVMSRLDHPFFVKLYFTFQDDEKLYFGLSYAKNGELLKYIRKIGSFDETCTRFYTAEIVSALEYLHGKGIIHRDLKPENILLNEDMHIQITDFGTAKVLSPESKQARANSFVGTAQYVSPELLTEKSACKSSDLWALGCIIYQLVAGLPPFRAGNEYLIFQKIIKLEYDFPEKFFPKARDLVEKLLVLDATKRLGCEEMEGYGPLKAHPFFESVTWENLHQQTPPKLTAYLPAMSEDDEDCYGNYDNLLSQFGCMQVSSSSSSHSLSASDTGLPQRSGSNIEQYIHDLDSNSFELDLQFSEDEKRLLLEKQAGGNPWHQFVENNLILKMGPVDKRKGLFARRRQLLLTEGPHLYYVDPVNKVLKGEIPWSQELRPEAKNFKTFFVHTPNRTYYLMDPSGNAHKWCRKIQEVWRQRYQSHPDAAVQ

[2] = biological target: PP2A catalytic C subunit (human) (UniProt P67775); assay: co-immunoprecipitation with anti-Myc tag antibody, DLD1-PPP2R2B cells treated with Dox
[3] = biological target: PP2A scaffolding A subunit (human) (UniProt P30153); assay: as above
endogenous PDK1 (human) [4] = biological target: T2, endogenous PDK1 (human) (UniProt O15530); assay: conclusion from co-immunoprecipitation and membrane fractionation in DLD1-PPP2R2B cells
T2 sequence (looked up): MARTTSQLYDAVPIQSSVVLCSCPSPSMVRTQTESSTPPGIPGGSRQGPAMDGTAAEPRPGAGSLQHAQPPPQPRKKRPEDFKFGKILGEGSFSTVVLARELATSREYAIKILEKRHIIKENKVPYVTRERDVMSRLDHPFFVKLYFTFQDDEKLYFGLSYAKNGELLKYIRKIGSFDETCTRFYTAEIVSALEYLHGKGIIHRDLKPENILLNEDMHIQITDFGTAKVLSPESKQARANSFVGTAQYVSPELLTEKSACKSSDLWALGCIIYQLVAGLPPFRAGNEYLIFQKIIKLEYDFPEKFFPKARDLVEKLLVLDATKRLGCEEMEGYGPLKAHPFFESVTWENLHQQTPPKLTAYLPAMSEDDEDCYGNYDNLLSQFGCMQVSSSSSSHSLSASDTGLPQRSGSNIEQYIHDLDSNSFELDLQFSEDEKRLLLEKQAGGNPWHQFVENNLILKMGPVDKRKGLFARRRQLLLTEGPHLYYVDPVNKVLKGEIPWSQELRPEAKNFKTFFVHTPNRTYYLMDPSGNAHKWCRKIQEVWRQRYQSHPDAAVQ

endogenous PDK1 (human) [5] = biological target: T2, endogenous PDK1 (human); assay: co-immunoprecipitation (anti-PDK1, anti-Myc tag), DLD1-PPP2R2B cells treated with Dox
endogenous PDK1 (human) [6] = biological target: T2, endogenous PDK1 (human); assay: co-immunoprecipitation, DLD1-PPP2R2B cells (FIG. 6B)
[7] = biological target: T1, PDK1-HA (ectopic PDK1) (human); assay: co-immunoprecipitation, 293T cells transfected with PPP2R2B-Myc and PDK1-HA (FIG. 6A)

Measured: binding

B1: Myc-tagged PPP2R2B (PPP2R2B-Myc) (protein, human, UniProt Q00005 1-443, looked up, not shown: small tags and cut ends)
chain: MEEDIDTRKINNSFLRDHSYATEADIISTVEFNHTGELLATGDKGGRVVIFQREQESKNQVHRRGEYNVYSTFQSHEPEFDYLKSLEIEEKINKIRWLPQQNAAYFLLSTNDKTVKLWKVSERDKRPEGYNLKDEEGRLRDPATITTLRVPVLRPMDLMVEATPRRVFANAHTYHINSISVNSDYETYMSADDLRINLWNFEITNQSFNIVDIKPANMEELTEVITAAEFHPHHCNTFVYSSSKGTIRLCDMRASALCDRHTKFFEEPEDPSNRSFFSEIISSISDVKFSHSGRYIMTRDYLTVKVWDLNMENRPIETYQVHDYLRSKLCSLYENDCIFDKFECVWNGSDSVIMTGSYNNFFRMFDRNTKRDVTLEASRENSKPRAILKPRKVCVGGKRRKDEISVDSLDFSKKILHTAWHPSENIIAVAATNNLYIFQDKVN
binds: [1] | [2] | [3] | endogenous PDK1 (human) [4] | endogenous PDK1 (human) [5] | endogenous PDK1 (human) [6] | [7]
